# Source: PMC12273641, “A cryo-electron microscopy structure of yeast Pex5 in complex with a cargo uncovers a novel binding interface” (Journal of Cell Science, 2025)
# These are yes or no findings as the source states them, for the method shown. For some of these results: Binding seen in cells or lysates may run through a third protein. Some entries that bind do so weakly or less than the wild type. Tags and fused reporters may be left off the sequences shown.
# B1: FLAG-Eci1 wild type (Saccharomyces cerevisiae Δ3,Δ2-enoyl-CoA isomerase 1) (natural protein, UniProt Q05871 1-280, looked up)
# chain: MSQEIRQNEKISYRIEGPFFIIHLMNPDNLNALEGEDYIYLGELLELADRNRDVYFTIIQSSGRFFSSGADFKGIAKAQGDDTNKYPSETSKWVSNFVARNVYVTDAFIKHSKVLICCLNGPAIGLSAALVALCDIVYSINDKVYLLYPFANLGLITEGGTTVSLPLKFGTNTTYECLMFNKPFKYDIMCENGFISKNFNMPSSNAEAFNAKVLEELREKVKGLYLPSCLGMKKLLKSNHIDAFNKANSVEVNESLKYWVDGEPLKRFRQLGSKQRKHRL
# notes: Eci1 (Δ3,Δ2-enoyl-CoA isomerase 1), Saccharomyces cerevisiae, wild type, M1-L280, ends in the PTS1 tripeptide 278HRL280; cloned into the first open reading frame of pACYCDuet-1; A TEV cleavage site follows the N-terminal FLAG tag; no TEV cleavage is described; Hexamer by cryo-EM; also called Eci1 WT; Eci1 (WT); source: E. coli BL21(DE3): co-expressed with Pex5, in lysate (pull-down); purified …
# B2: FLAG-Eci1ΔPTS1 (Saccharomyces cerevisiae Eci1 lacking the last three amino acids 278HRL280) (domain or fragment, UniProt Q05871 1-277)
# chain: MSQEIRQNEKISYRIEGPFFIIHLMNPDNLNALEGEDYIYLGELLELADRNRDVYFTIIQSSGRFFSSGADFKGIAKAQGDDTNKYPSETSKWVSNFVARNVYVTDAFIKHSKVLICCLNGPAIGLSAALVALCDIVYSINDKVYLLYPFANLGLITEGGTTVSLPLKFGTNTTYECLMFNKPFKYDIMCENGFISKNFNMPSSNAEAFNAKVLEELREKVKGLYLPSCLGMKKLLKSNHIDAFNKANSVEVNESLKYWVDGEPLKRFRQLGSKQRK
# Columns and labels:
# [1] = molecular target: T1, His-SUMO-Pex5 (full-length Saccharomyces cerevisiae Pex5, 1-612, uncleaved N-terminal His-Sumo fusion) (Saccharomyces cerevisiae) (UniProt P35056); assay: pull-down; His-tag pull-down on Ni resin from lysates (TBS) of E. coli co-expressing His-SUMO-Pex5 with FLAG-Eci1 WT or ΔPTS1; Pex5 captured, Eci1 detected by anti-FLAG western blot
# T1 sequence: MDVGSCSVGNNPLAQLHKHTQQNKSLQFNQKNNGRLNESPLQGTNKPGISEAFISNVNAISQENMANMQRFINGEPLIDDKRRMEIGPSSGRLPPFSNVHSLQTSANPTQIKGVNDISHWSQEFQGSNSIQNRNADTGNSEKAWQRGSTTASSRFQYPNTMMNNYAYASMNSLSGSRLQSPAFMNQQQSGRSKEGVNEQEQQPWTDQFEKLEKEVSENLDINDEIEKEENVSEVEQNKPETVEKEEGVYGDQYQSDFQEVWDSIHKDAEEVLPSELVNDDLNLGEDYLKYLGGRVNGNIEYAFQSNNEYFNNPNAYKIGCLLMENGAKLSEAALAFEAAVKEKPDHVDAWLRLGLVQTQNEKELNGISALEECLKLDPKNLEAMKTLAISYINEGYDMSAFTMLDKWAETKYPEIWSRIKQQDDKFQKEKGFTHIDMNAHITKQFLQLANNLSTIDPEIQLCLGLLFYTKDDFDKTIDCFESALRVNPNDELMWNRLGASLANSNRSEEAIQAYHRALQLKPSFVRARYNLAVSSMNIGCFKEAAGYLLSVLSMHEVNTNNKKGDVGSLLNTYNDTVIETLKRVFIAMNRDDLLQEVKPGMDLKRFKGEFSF
# [2] = molecular target: T2, Pex5 (full-length Saccharomyces cerevisiae Pex5, 1-612, His-Sumo fusion cleaved off) (Saccharomyces cerevisiae) (UniProt P35056); assay: cryo-EM structure; single-particle cryo-EM of the co-expressed, co-purified Pex5–Eci1 complex (2 mg/ml, in PBS); 2.7 Å global, 2.9 Å local refinement of Pex5 and the interface; both purified
# T2 sequence: T1 sequence
# [3] = molecular target: T2, Pex5 (full-length Saccharomyces cerevisiae Pex5, 1-612, His-Sumo fusion cleaved off) (Saccharomyces cerevisiae); assay: SPR; Biacore, Pex5 immobilised by amine coupling on two channels of a CM5 chip (450 and 480 RU); Eci1 WT or Eci1ΔPTS1 as analyte, 1.95-500 nM, single-cycle kinetics, 120 s injection, 900 s dissociation, 30 µl/min, 25°C; bivalent analyte model for WT; both purified
Binder,binding [1],binding [2],binding [3]
B1,binds,binds,–
B2,binds,–,binds weakly
